In experiment [1] the target is recombinant D7 (AAEL006417) (Aedes aegypti) (UniProt Q0IF93). As to the kind of experiment: ELISA; 5 μg salivary gland protein coated overnight at 4°C on high binding 96-well plates, blocked with 1% BSA in PBST; 1 μg CD4 or DC-SIGN ectodomain added at 37°C for 1 h; detected with rabbit anti-CD4 or HRP anti-DC-SIGN monoclonal antibody, TMB, read at 450 nm; both purified.

Amino acid sequences for entries named in this document (tags omitted). Residues count along the entry.
UniProt Q0IF93, residues 22-332: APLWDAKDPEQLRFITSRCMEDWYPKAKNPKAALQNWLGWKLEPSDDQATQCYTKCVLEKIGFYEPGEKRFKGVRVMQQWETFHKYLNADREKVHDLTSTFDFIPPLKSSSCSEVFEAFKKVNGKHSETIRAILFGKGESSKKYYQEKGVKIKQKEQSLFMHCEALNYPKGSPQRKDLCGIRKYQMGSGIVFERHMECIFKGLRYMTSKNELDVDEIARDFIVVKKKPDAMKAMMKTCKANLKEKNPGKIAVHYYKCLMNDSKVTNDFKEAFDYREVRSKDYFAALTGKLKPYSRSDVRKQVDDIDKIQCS
UniProt Q9NNX6, residues 58-380: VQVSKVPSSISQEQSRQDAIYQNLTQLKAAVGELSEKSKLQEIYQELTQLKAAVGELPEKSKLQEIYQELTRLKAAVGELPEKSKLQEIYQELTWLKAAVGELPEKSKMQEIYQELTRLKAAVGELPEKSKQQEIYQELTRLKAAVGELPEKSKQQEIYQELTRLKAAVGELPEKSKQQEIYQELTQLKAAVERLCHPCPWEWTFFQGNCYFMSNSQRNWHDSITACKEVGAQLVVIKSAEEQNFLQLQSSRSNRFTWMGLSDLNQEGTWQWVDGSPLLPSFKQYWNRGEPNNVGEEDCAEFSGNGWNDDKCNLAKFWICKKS

The target in experiment [2] is T1, recombinant Ae. aegypti venom allergen 1 (AaVA-1) (Aedes aegypti).
T1 sequence: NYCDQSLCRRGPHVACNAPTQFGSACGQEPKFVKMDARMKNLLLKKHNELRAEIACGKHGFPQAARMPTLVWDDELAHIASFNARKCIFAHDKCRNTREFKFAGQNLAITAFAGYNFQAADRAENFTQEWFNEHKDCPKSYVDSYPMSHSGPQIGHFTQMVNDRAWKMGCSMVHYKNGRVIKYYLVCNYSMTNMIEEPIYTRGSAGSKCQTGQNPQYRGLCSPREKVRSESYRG
The description is as above.

Results are given in words; binding and its absence hold for the method and conditions named. Some binding calls cover weakened binding; strength is not graded here.

For “ectodomain of human DC-SIGN (58-380 amino acid residues), recombinant (from UniProt Q9NNX6 58-380) (domain or fragment)”, the values for the binding result in experiment [1] and in experiment [2] were “no binding (tested: 1 μg DC-SIGN)” and “binds weakly”, respectively.
